Experimental data: US20260035447A1 (SCHOLAR ROCK, published 2026)
These are yes or no findings as the source states them, for the method shown. Some entries that bind do so weakly or less than the wild type.

Experiments:
[1] = biological target: T1, pro/latent GDF8 (pro-myostatin and latent myostatin), endogenous, in mouse tibialis anterior muscle (mouse) (UniProt O08689); assay: immunofluorescence on cryosections of mouse tibialis anterior muscle, Ab10 at 50 µg/mL, anti-human IgG Alexa Fluor 594 secondary, DAPI counterstain
T1 sequence: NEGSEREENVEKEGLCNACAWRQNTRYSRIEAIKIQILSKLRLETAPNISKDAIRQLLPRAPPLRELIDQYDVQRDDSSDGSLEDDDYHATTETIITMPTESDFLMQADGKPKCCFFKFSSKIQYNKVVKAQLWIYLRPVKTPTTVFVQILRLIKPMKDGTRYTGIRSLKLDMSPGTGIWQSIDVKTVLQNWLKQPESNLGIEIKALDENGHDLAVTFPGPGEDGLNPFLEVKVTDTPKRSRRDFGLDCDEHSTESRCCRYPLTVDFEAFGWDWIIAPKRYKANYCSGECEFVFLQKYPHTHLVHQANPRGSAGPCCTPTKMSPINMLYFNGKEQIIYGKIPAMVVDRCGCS

proGDF8 (Mus musculus) = biological target: T2, proGDF8 (Mus musculus) (UniProt O08689); assay: recombinant protein absorption: Ab10 at 50 µg/mL pre-incubated overnight with 10-fold molar excess of recombinant mouse GDF8, then used as primary antibody for immunofluorescence on mouse tibialis anterior sections; read-out is loss of tissue pro/latent GDF8 staining
T2 sequence (proprotein, looked up): T1 sequence

[2] = biological target: T1, pro/latent GDF8 (pro-myostatin and latent myostatin), endogenous, in mouse tibialis anterior muscle (mouse); assay: immunofluorescence on cryosectioned TA muscle from healthy mice
[3] = biological target: T1, pro/latent GDF8 (pro-myostatin and latent myostatin), endogenous, in mouse tibialis anterior muscle (mouse); assay: immunofluorescence on cryosections of mouse tibialis anterior muscle, Ab10 at 50 µg/mL pre-incubated overnight in blocking buffer alone, DAPI counterstain
[4] = biological target: T1, pro/latent GDF8 (pro-myostatin and latent myostatin), endogenous, in mouse tibialis anterior muscle (mouse); assay: immunofluorescence on mouse TA muscle sections probed with Ab10 and anti-laminin (figure legend)
[5] = biological target: T1, pro/latent GDF8 (pro-myostatin and latent myostatin), endogenous, in mouse tibialis anterior muscle (mouse); assay: immunofluorescence on cryosectioned mouse TA muscle, co-stained with laminin

Measured: binding

B1: anti-pro/latent GDF8 antibody, Ab10 (antibody, V domains shown)
VH: EVQLVQSGGGVVQSGRSLRLSCVASGFSFSNYGMHWVRQAPGKGLEWLAFIWYDGSNKWYADSVKGRFTISRDNSKNALYLQMNSLRAEDTAVYYCARDRYSSSWGGGFDYWGQGTVLTVSS
VL: NFMLTQPHSVSESPGRTVTIPCSGRGGSIASDSVQWYQQRPGSAPTTIIYEDNQRPSGVPDRFSGSVDSSSNSASLTISGLRTEDEADYYCQSYDASSLWVFGGKTKLTVLG
notes: The VL as printed runs into the start of the lambda constant region
binds: all assays above
